# Measurements reported in the supplement of paper PMC12067093, “Discovery and optimisation of a covalent ligand for TRIM25 and its application to targeted protein ubiquitination” (Chemical Science, 2025).
# Protein sequences, listed by entry. Tags and fused reporters are not part of them. Lines headed by an entry give the natural chain unless they say otherwise; changes in a name come on top.
# UniProt Q9NVH6: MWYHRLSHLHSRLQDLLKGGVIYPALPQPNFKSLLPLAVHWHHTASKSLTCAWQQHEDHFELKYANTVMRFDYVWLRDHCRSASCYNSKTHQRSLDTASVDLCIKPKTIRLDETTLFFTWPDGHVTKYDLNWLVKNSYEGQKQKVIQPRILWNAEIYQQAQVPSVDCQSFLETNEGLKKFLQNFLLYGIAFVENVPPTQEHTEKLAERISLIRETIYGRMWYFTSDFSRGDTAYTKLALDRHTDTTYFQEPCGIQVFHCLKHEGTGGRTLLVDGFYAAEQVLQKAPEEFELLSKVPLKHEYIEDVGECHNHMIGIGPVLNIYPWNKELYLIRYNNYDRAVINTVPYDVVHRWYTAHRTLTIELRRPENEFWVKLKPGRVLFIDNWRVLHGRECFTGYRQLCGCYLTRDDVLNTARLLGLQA
# UniProt Q92547, whole entry, looked up: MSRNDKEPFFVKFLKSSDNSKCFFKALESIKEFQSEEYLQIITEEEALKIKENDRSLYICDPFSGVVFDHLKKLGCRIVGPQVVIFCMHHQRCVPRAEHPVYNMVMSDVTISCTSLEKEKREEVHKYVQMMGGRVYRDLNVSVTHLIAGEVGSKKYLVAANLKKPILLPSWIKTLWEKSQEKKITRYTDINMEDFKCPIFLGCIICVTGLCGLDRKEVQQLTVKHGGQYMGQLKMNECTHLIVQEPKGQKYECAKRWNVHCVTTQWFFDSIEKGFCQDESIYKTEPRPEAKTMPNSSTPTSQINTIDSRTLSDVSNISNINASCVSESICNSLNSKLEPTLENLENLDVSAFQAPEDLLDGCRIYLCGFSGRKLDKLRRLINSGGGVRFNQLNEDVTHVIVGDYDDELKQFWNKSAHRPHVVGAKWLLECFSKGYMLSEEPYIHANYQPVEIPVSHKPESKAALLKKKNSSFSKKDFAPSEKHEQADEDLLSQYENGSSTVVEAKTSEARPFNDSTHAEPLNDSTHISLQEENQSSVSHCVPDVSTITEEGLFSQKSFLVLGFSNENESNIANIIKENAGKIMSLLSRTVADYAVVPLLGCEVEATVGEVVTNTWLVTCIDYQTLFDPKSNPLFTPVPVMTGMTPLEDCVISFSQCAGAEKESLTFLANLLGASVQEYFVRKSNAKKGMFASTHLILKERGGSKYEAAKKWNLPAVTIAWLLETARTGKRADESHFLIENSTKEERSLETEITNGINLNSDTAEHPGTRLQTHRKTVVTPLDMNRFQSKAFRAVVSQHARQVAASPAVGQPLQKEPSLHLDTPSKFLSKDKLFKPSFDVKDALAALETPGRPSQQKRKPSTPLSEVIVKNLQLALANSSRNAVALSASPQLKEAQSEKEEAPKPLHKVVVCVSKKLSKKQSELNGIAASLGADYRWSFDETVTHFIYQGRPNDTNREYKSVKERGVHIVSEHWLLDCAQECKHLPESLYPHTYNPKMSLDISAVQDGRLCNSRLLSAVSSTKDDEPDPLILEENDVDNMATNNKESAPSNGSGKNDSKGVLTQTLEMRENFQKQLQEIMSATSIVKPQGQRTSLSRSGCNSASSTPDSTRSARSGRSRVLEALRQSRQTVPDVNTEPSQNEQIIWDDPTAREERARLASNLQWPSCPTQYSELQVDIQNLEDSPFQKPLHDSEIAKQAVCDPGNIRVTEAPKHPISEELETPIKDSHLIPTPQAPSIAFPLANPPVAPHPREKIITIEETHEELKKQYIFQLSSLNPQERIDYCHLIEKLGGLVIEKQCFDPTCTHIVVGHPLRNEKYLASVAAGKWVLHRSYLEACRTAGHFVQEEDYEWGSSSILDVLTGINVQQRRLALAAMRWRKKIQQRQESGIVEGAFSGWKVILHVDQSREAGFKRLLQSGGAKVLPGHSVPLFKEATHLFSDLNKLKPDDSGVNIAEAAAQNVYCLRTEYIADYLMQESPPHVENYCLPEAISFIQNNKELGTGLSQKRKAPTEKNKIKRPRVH
# Some of the results follow.
# Key:
# [1] = molecular target: TMLHE_Q9NVH6_51_SLTCAWQQHEDHFELK (UniProt Q9NVH6); test: probe-labelled cysteine peptide fold change vs DMSO (competition) (log2 fold change); higher = less target engagement (more negative = stronger competition); details: THP-1, incubation time: 4 h
# [2] = molecular target: TOPBP1_Q92547_977_GVHIVSEHWLLDCAQECK (UniProt Q92547); test: as above; details: THP-1, incubation time: 4 h
# 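Further: competitive profiling in live THP-1 cells: cysteine peptides tagged with an iodoacetamide desthiobiotin (IA-DTB) probe, intensity after compound treatment relative to DMSO-treated cells.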
smiles,measurement,setting,value
Cc1cc(C(=O)N2CCCN(C(=O)CCl)CC2)ccc1-c1ccccc1 [compound 10],probe-labelled cysteine peptide fold change,[1]; 10 µM,-0.0542
same,probe-labelled cysteine peptide fold change,[1]; 50 µM,-0.13
same,probe-labelled cysteine peptide fold change,[2]; 10 µM,0.052
same,probe-labelled cysteine peptide fold change,[2]; 50 µM,0.11
